Results on one compound are retold here after US11352350B2, “IRAK degraders and uses thereof” (Kymera Therapeutics, Inc., priority 2018, dated 2022).

By UniProt entry, the sequences of proteins in these tests, tags left out.
UniProt Q9NWZ3, whole entry: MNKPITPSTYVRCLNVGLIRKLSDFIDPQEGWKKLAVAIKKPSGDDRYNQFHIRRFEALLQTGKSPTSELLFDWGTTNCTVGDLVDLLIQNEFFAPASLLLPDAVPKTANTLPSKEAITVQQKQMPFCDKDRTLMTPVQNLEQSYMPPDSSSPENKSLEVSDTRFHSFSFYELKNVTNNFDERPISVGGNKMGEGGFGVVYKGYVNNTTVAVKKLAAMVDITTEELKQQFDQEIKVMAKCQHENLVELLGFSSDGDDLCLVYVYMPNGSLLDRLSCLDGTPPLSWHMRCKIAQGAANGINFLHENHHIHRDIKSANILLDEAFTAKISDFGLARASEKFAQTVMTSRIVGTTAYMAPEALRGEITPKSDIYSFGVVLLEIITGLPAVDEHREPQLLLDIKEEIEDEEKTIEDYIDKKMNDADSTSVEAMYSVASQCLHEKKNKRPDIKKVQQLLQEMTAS

The structures given here were assigned with low confidence; some may be wrong. Bounds are passed on as bounds.

Assay [1] concerns OCI-LY10. In words: CTG Cell Viability Assay - OCI-LY10. To be noted: read-out: CTG Cell Viability Assay - OCI-LY10: Average external-IC50; OCI-LY10, 4 days.
Assay [2] deals with IRAK4 (Homo sapiens (Human), UniProt Q9NWZ3). The assay is described as follows: IRAK4 MSD degradation in OCI-LY10. Type of assay: cell-based. To be noted: read-out: IRAK4 MSD degradation in OCI-LY10 at 4 hrs: Average external-Abs DC50, OCI-LY10, 4 hrs.

As usually defined, the IC50 is the concentration that inhibits the measured activity by half. For orientation: DC50 means the concentration at which degradation of the target reaches its halfway point. As to `Cn1c(=O)n(C2CCC(=O)NC2=O)c2cccc(CCCOC3CCN(C[C@H]4CC[C@H](n5cc(NC(=O)c6cnn7ccc(N[C@@H]8CCCC[C@@H]8O)nc67)c(C(F)F)n5)CC4)CC3)c21` (relative stereo), in assay [1], the IC50 is more than 1000 nM. For the same compound, the 50% degradation concentration (DC50) in assay [2] is 10 to 100 nM.
